According to PMC4201148:
These are yes or no findings as the source states them, for the method shown. In cells and extracts the contact can be indirect. For some of these results: Sequences can lack the tags named with a protein.

Assays:
[1] = target: T1, 6xHis-SpvC (Salmonella enterica subsp. enterica serovar Typhimurium strain 14028s) (UniProt P0A2M9); assay: condition: 50 μg recombinant protein with 50 μg extract in 200 μl; pull-down; 50 μg purified recombinant 6xHis-SpvC or GST-SpvC incubated with 50 μg total Arabidopsis protein extract, with or without 80 μg BSA, 30 min, 200 μl, 21°C, with Ni- or GTH-beads; beads washed 3 times; immunoblot with anti-MPK6, anti-MPK3 or anti-MPK4; only the target purified
T1 sequence: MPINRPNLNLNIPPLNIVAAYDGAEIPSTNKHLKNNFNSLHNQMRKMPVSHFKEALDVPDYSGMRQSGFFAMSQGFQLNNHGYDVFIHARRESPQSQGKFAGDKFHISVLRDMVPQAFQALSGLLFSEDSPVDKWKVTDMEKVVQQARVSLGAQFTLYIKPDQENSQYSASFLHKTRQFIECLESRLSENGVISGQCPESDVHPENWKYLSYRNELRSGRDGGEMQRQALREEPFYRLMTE

[2] = target: T2, GST-SpvC (Salmonella enterica subsp. enterica serovar Typhimurium strain 14028s) (UniProt P0A2M9); assay: as above
T2 sequence: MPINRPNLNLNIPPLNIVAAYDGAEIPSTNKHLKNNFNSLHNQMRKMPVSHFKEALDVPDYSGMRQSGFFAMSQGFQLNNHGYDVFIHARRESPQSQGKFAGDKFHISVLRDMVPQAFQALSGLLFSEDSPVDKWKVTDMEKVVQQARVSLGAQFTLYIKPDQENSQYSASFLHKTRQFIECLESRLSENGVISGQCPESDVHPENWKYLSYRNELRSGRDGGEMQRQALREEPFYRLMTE

[3] = target: T3, YFPc-SpvC (Salmonella enterica subsp. enterica serovar Typhimurium strain 14028s) (UniProt P0A2M9); assay: split reporter; BiFC with YFPn and YFPc fusions co-expressed in Arabidopsis epidermal cells by particle bombardment together with p35S-mCherry; fluorescence observed 24-48 h after transformation by confocal microscopy; YFP-positive cells counted among mCherry-positive cells
T3 sequence: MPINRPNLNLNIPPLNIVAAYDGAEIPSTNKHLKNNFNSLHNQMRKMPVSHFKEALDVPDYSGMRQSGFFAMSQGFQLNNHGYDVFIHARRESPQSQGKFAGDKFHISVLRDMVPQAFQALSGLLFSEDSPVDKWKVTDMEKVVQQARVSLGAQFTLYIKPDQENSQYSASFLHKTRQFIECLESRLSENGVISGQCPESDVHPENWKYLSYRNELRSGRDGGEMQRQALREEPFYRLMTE

[4] = target: T4, YFPn-SpvC (Salmonella enterica subsp. enterica serovar Typhimurium strain 14028s) (UniProt P0A2M9); assay: as above
T4 sequence: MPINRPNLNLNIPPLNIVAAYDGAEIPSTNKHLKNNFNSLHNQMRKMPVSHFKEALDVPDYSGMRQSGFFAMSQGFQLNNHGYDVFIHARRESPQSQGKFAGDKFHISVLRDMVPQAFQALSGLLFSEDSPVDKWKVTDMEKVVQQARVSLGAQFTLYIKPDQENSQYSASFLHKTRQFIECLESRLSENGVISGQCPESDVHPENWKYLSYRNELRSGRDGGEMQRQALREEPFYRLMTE

B1: Arabidopsis MPK3 (enzyme, UniProt Q39023 1-370)
chain: MNTGGGQYTDFPAVETHGGQFISYDIFGSLFEITSKYRPPIIPIGRGAYGIVCSVLDTETNELVAMKKIANAFDNHMDAKRTLREIKLLRHLDHENIIAIRDVVPPPLRRQFSDVYISTELMDTDLHQIIRSNQSLSEEHCQYFLYQLLRGLKYIHSANIIHRDLKPSNLLLNANCDLKICDFGLARPTSENDFMTEYVVTRWYRAPELLLNSSDYTAAIDVWSVGCIFMELMNRKPLFPGKDHVHQMRLLTELLGTPTESDLGFTHNEDAKRYIRQLPNFPRQPLAKLFSHVNPMAIDLVDRMLTFDPNRRITVEQALNHQYLAKLHDPNDEPICQKPFSFEFEQQPLDEEQIKEMIYQEAIALNPTYG
B1 was tested, and the binding [1] was “no binding” and the binding [2] was “no binding”.

B2: YFPn-MPK3 (enzyme, UniProt Q39023 1-370)
chain: MNTGGGQYTDFPAVETHGGQFISYDIFGSLFEITSKYRPPIIPIGRGAYGIVCSVLDTETNELVAMKKIANAFDNHMDAKRTLREIKLLRHLDHENIIAIRDVVPPPLRRQFSDVYISTELMDTDLHQIIRSNQSLSEEHCQYFLYQLLRGLKYIHSANIIHRDLKPSNLLLNANCDLKICDFGLARPTSENDFMTEYVVTRWYRAPELLLNSSDYTAAIDVWSVGCIFMELMNRKPLFPGKDHVHQMRLLTELLGTPTESDLGFTHNEDAKRYIRQLPNFPRQPLAKLFSHVNPMAIDLVDRMLTFDPNRRITVEQALNHQYLAKLHDPNDEPICQKPFSFEFEQQPLDEEQIKEMIYQEAIALNPTYG
In the case of B2, the binding [3] is reported as “no binding”.

B3: YFPc-MPK3 (enzyme, UniProt Q39023 1-370)
chain: MNTGGGQYTDFPAVETHGGQFISYDIFGSLFEITSKYRPPIIPIGRGAYGIVCSVLDTETNELVAMKKIANAFDNHMDAKRTLREIKLLRHLDHENIIAIRDVVPPPLRRQFSDVYISTELMDTDLHQIIRSNQSLSEEHCQYFLYQLLRGLKYIHSANIIHRDLKPSNLLLNANCDLKICDFGLARPTSENDFMTEYVVTRWYRAPELLLNSSDYTAAIDVWSVGCIFMELMNRKPLFPGKDHVHQMRLLTELLGTPTESDLGFTHNEDAKRYIRQLPNFPRQPLAKLFSHVNPMAIDLVDRMLTFDPNRRITVEQALNHQYLAKLHDPNDEPICQKPFSFEFEQQPLDEEQIKEMIYQEAIALNPTYG
With B3 the binding [4] was “no binding”.
